Measured values published in PubChem BioAssay AID602296 (Broad Institute, 2012).
Out of some 2,000 compounds screened, about 190 (9.5%) were called active. Another 14% or so got no clear call; they are omitted.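 Rule for the calls: active = fitted activation curve crossing 40% at a concentration no higher than the sample's top valid tested dose; inconclusive = flat fitted curve at 30% to 70% activation, or poor curve fit; inactive = signal decrease, flat curve within 30%, or the rest.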 Most of the strongest results are missing from this list.

assay: sustained heat shock response element induction – cell-based, mouse, luciferase, cherry-pick, dose, confirmation (AID 602296); conditions: NIH3T3-HGL HSF-1 response element luciferase, 48 h; at 26 µM (top of the series) unless noted;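 note: test compounds applied by themselves with no MG132 co-treatment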

activation, inactive:
CCC(C)NC(=O)CC(NS(=O)(=O)c1ccc(Cl)cc1)c1ccco1 (configuration not stated) -11.5%
CCN(CC)c1ccc(/C=C2/C(=O)N(c3ccc([N+](=O)[O-])cc3)N=C2N2CCOCC2)cc1 -6.1%
CC(=O)N1c2ccc(C)cc2C(c2ccccc2)CC1C (configuration not stated) -22.4%
CCOc1ccc(NC(=O)Cn2nnc(C(=O)NCc3ccco3)c2N)cc1 -12.2%
C=C(C(=O)c1ccccc1)C(CC(=O)c1ccccc1)c1ccccc1 (configuration not stated) -101%
O=C(Cn1ncc(Cl)c(Cl)c1=O)N1CCN(S(=O)(=O)c2ccc3ccccc3c2)CC1 -103%
COC(=O)c1ccccc1NC(=O)CSc1nc(Nc2ccccc2)nc(N2CCOCC2)n1 -43.1%
Cc1ccc(CCNC(=O)C2CCN(S(=O)(=O)c3ccc4c(c3)NC(=O)CO4)CC2)cc1 -4.08%
Cn1c(SCc2ccccc2C#N)nc2ccccc2c1=O -13.4%
Cc1cc(C)c(S(=O)(=O)n2ccc(-c3ccc(OCCN(C)c4ccccn4)cc3)n2)c(C)c1 -10.9%
CCn1nc(C)cc1-c1nnc(Sc2ncc([N+](=O)[O-])s2)n1C -111%
Fc1ccccc1NC(=S)N1CCN(c2ccccn2)CC1 9.96%
CCN(CC(=O)NC(C)C)Cc1nc2sc3c(c2c(=O)[nH]1)CCC3 -23.6%
Cc1cc(C)n(-c2cc(=O)n(C)c(=O)n2C)n1 12%
CCCCCCNC(=O)CNC(=S)N(Cc1cccs1)C1CCCCC1 -77.1%
O=S(=O)(c1ccccc1)c1ncc(C(F)(F)F)cc1Cl -104%
COc1ccc(OC)c(S(=O)(=O)Nc2ccccc2O)c1 -3.47%
C/C=C(/C)C(=O)Nc1cccc(C2=NOC3(C2)C[C@@H](C(N)=O)N(C(=O)CC)C3)c1 (some centres not stated) -7%
OCC1(Cc2cccc(C(F)(F)F)c2)CCN(Cc2cc3ccccc3o2)CC1 -20.1%
O=C(Nc1nccs1)c1cccc(N2C(=O)c3cccc4c([N+](=O)[O-])ccc(c34)C2=O)c1 -101%
Cc1cc(F)c(F)c(C(=O)N2CCOCC2)c1Cl 7.96%
Cc1ccc(S(=O)(=O)n2c(=O)oc3ccccc32)cc1 -7.52%
Cc1c(C(=O)N(Cc2ccncc2)CC2CCCO2)oc2c(F)cccc12 (configuration not stated) 0.128%
COc1ccc(CN(C)Cc2c(O)ccc3ccccc23)cc1 -3.48%
COc1cccc(OC)c1OCCNCC1COc2ccccc2O1 (configuration not stated) -4.24%
O=C(CSC1CS(=O)(=O)c2cc([N+](=O)[O-])ccc21)NNC(=O)c1ccc(Cl)cc1 (configuration not stated) 7.22%
CSCC[C@H](NC(=O)N1CCn2c1nc1ccccc12)C(=O)NCc1ccc(F)cc1 -9.38%
Cc1ccc(-c2[nH]ncc2C(=O)c2ccc(Br)cc2)c(O)c1 7.31%
O=C(CCc1nnc(CCCCc2ccccc2)o1)NCCN1CCCCC1=O 3.82%
CCCN1CCN(C(=O)c2ccc(Sc3ccc(C)cc3)c(NC(C)=O)c2)CC1 -11.2%
CCOC(=O)c1c(C)sc2c1N(C(=O)CN(CC)CC)c1ccccc1S2 -8.47%
COc1ccc(CCN2C(=O)C3C(C2=O)C2C=CC3C23CC3)cc1OC (configuration not stated) -3.1%
O=[N+]([O-])c1cc([N+](=O)[O-])c(N2CCOCC2)cc1NCc1ccccc1 6%
O=S(=O)(c1ccc(Cl)cc1)N1CCC2(CC1)OCCN2S(=O)(=O)c1cccs1 -35.6%
CCOc1ccc(S(=O)(=O)c2c(C(=O)c3ccccc3)cnc3cc4c(cc23)OCCO4)cc1 7.45%
CCc1ccccc1NS(=O)(=O)c1cc2c3c(c1)CCN3C(=O)CC2 2.03%
COc1ccc(N2C(=O)CSC2c2ccncc2)cc1 (configuration not stated) 6.7%
O=C(CCc1ccc(S(=O)(=O)N2CCOCC2)cc1)N1CCN(Cc2ccc3c(c2)OCO3)CC1 7.24%
CC12CCC(=O)N1C(C(=O)Nc1cccc3ccccc13)CS2 (configuration not stated) -1.65%
CC[C@H](C)/C=C(C)/C=C/C(=O)Cc1cc(O)c(C)c(O)c1C=O -0.093%
NC(=O)CC(NC(=O)c1ccc(Br)cc1)c1ccc(N2CCCCCC2)c([N+](=O)[O-])c1 (configuration not stated) -21.6%
COc1cc(NC(=O)COC(=O)c2ccc(C)c(S(=O)(=O)N3CCCCC3)c2)c(C)cc1[N+](=O)[O-] -7.45%
O=C(CS(=O)c1ccc(C(F)(F)F)cc1[N+](=O)[O-])Oc1ccccc1 (configuration not stated) -94.7%
C=C(C)CN(CC)c1nc(N)c2c(N)nc3c(c2c1C#N)CC(=O)N3C12CC3CC(CC(C3)C1)C2 -56.4%
COc1ccc(N/C=C2\C(=O)CCc3c2oc2cc(Cl)c(O)c(Cl)c32)cc1 -8.08%
O=C(CN1c2ccccc2Sc2ccccc21)N/N=C/c1ccc(Cl)cc1 -55.8%
COc1ccc(C(C(=O)NCC2CCCO2)N(C(=O)Cn2nnc3ccccc32)c2ccc(NC(C)=O)cc2)cc1OC (configuration not stated) 5.69%
CCCCn1c(NC(=O)c2ccco2)c(S(=O)(=O)c2ccc(C)cc2)c2nc3ccccc3nc21 -17.4%
COc1ccc(CN(CC2CCC(C(=O)O)CC2)C(=S)Nc2cc(Cl)ccc2OC)cc1 (configuration not stated) -20.2%
Cc1c(C(=O)NCCN(C)C)oc2ccc(S(=O)(=O)N3CCCC3)cc12 -11.1%
COc1ccc(CNCC(O)COc2ccc(C(C)(C)c3ccccc3)cc2)cc1 (configuration not stated) -44.6%
COc1ccc(S(=O)(=O)Nc2ccncc2)c(C)c1C 6.75%
O=C(CNS(=O)(=O)c1ccc(Br)s1)NCc1ccccc1 0.286%
Cc1cc2c(cc1C)C(c1cccc([N+](=O)[O-])c1)CC(=O)N2 (configuration not stated) 2.19%
O=C(O)CN1C(=O)/C(=C/c2ccccc2Br)Oc2ccccc21 3.86%
CCCC(=O)O/N=C(\c1ccccc1)c1ccncc1 -17.2%
CCn1c(SCCOc2ccc(Cl)cc2)nnc1-c1cccs1 -36.1%
Cc1cc(NCCN2CCOCC2)n2nc(C)c(-c3ccc(Cl)cc3)c2n1 -28%
COc1ccc(CNS(=O)(=O)c2cc(CN3C(=O)c4cccnc4C3=O)ccc2OC)cc1 5.12%
CC(=O)N1CSCC1C(=O)NNS(=O)(=O)c1cccc(C(F)(F)F)c1 (configuration not stated) 5.92%
O=C(Nc1ccc(C(=O)N2CCOCC2)cc1)c1cnn2c(C(F)F)cc(-c3ccccc3)nc12 1.93%
COCCCN1C(=O)c2[nH]nc(-c3ccccc3O)c2C1c1cccc(Cl)c1 (configuration not stated) -20.5%
CCOc1cc([N+](=O)[O-])cc(/C=C2/NC(=O)N(Cc3ccccc3F)C2=O)c1O -24.8%
CC1(c2ccccc2)CC2CC(c3ccccc3)N1O2 (configuration not stated) 4.93%
Cc1ccc2nc(SCC(=O)Nc3cccc(S(=O)(=O)NC4=NCCCCC4)c3)[nH]c2c1 -16.7%
Cc1cc(Sc2ncnc(N)c2[N+](=O)[O-])ncn1 -99%
COc1cc(/C=N/Nc2snc(SC)c2C#N)ccc1O -4.99%
CCCCn1c(N)c(N(CC(C)C)C(=O)C2CCN(S(=O)(=O)c3ccc(C)c(C)c3)CC2)c(=O)[nH]c1=O -3.45%
COc1ccc(C(=O)Nc2cc(C(F)(F)F)ccc2-n2cnc3ccccc32)cc1 -9.25%
CCc1cccc(CC)c1NC(=O)COC(=O)CC1c2ccccc2CCN1S(=O)(=O)c1ccc(F)cc1 (configuration not stated) -24.4%
O=C1C(=O)N(Cc2cccnc2)C(c2cccc(O)c2)/C1=C(\O)c1ccc2c(c1)OCCO2 (configuration not stated) 0.865%
Cc1cccc(C2c3[nH]c4ccccc4c3CCN2Cc2cnn(-c3ccc(F)cc3)c2)n1 (configuration not stated) -2.28%
COc1ccccc1NS(=O)(=O)c1cc(C(=O)N2CC(C)CC(C)C2)ccc1C (configuration not stated) -17.2%
Nc1nc(Br)c2c(F)cccc2c1-c1ccc(Cl)cc1 -7.38%
CC(NC(=O)/C=C/c1ccco1)c1nc2ccccc2n1Cc1cccc(Cl)c1 (configuration not stated) -32.1%
Cc1cc(C)c2cc(CN(Cc3ccco3)C(=S)NCC3CCCO3)c(=O)[nH]c2c1 (configuration not stated) -3.55%
CSc1nc(NC(C)(C)C)nc(Oc2ccc(=O)[nH]n2)n1 12.6%
CCCN(CCC)C(=S)NC1CC2C=CC1C2 (configuration not stated) -20.6%
CN(C)c1nc(NC(C)(C)C)nc(SCC(=O)Nc2ccccc2)n1 -14.3%
O=C(Nc1cccc(Cl)c1)N1CCC(CO)(CCOc2ccccc2)CC1 6.61%
O=c1c2ccccc2nc(SCc2nnc(-c3ccccc3Br)o2)n1Cc1ccco1 8.55%
CCc1nc(N2CCN(S(=O)(=O)c3ccc(Br)cc3)CC2)c2c(C)c(C)sc2n1 -13.7% [at 12 µM]
c1ccc(-c2nc(CSc3n[nH]c(-c4cccs4)n3)cs2)cc1 0.044%
O=c1c(Cl)cc(Cl)nn1-c1ccccc1 -99.9%
COc1ccc(Cl)cc1NC(=O)CCc1nc(-c2ccccc2F)no1 -32.6%
Fc1ccc(NC(=S)Nc2cc(Cl)ccc2Cl)cc1 -2.92%
O=C(COC(=O)c1ccccc1C(=O)c1ccccc1)NCCc1ccccc1 -4.6%

Five compounds picked at random from those above:
activation, inactive:
O=C(COC(=O)c1ccccc1C(=O)c1ccccc1)NCCc1ccccc1 -4.6%
CCCN1CCN(C(=O)c2ccc(Sc3ccc(C)cc3)c(NC(C)=O)c2)CC1 -11.2%
O=C(O)CN1C(=O)/C(=C/c2ccccc2Br)Oc2ccccc21 3.86%
CCCCn1c(N)c(N(CC(C)C)C(=O)C2CCN(S(=O)(=O)c3ccc(C)c(C)c3)CC2)c(=O)[nH]c1=O -3.45%
CCOC(=O)c1c(C)sc2c1N(C(=O)CN(CC)CC)c1ccccc1S2 -8.47%
